Our source for the binding values is article PMC10086757.

Amino acid sequences for entries named in this document (tags omitted).
UniProt O60260: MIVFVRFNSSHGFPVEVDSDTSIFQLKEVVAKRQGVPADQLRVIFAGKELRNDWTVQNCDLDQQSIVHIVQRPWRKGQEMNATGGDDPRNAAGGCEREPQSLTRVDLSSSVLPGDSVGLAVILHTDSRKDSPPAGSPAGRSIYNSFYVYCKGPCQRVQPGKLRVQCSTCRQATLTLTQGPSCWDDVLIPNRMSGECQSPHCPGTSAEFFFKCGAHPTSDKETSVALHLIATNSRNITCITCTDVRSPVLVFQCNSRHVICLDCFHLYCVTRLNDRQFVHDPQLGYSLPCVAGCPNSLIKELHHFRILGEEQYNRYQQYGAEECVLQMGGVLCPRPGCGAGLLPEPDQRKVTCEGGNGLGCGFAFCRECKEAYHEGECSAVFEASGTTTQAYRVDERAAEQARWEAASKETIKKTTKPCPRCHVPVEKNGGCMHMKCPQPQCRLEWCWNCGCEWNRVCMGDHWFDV

No constants are given. Whether binding was seen depends on the method and setting. Binding seen in cells or lysates may run through a third protein. Here binding means that the protein was enriched with, or labelled near, the bait; the list need not be complete.

The assay concerns the target Flag-Parkin (UniProt O60260). Description: affinity purification with mass spectrometry; HCT116 transfected with Flag-Parkin or empty Flag vector for 24 h; anti-Flag IP with Protein A/G-Agarose beads, SDS-PAGE, in-gel trypsin digestion, LC-MS/MS.

B1: Vitamin D receptor (VDR), endogenous in HCT116 (protein, UniProt P11473 1-427)
chain: MEAMAASTSLPDPGDFDRNVPRICGVCGDRATGFHFNAMTCEGCKGFFRRSMKRKALFTCPFNGDCRITKDNRRHCQACRLKRCVDIGMMKEFILTDEEVQRKREMILKRKEEEALKDSLRPKLSEEQQRIIAILLDAHHKTYDPTYSDFCQFRPPVRVNDGGGSHPSRPNSRHTPSFSGDSSSSCSDHCITSSDMMDSSSFSNLDLSEEDSDDPSVTLELSQLSMLPHLADLVSYSIQKVIGFAKMIPGFRDLTSEDQIVLLKSSAIEVIMLRSNESFTMDDMSWTCGNQDYKYRVSDVTKAGHSLELIEPLIKFQVGLKKLNLHEEEHVLLMAICIVSPDRPGVQDAALIEAIQDRLSNTLQTYIRCRHPPPGSHLLYAKMIQKLADLRSLNEEHSKQYRCLSFQPECSMKLTPLVLEVFGNEIS
Take B1: the binding result is given as “binds”.
